These results are taken from the supplement of paper PMC7024190.

Counter-ions that a name gives are not always drawn. The list shows a part of the results. Single values are uncertain here, since repeats match poorly.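 The cells were human embryonic kidney cells carrying a Renilla luciferase gene, driven by the HSV-TK promoter, on a plasmid put in briefly by transfection. This is the first-round screen of about ten thousand compounds, looking for ones that raise reporter output.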

This test relates to HEK 293FT. Briefly: log relative Renilla luciferase luminescence (reporter expression vs reference, reference not stated) (log (base not stated)); higher = higher recombinant reporter expression. The conditions noted are these: 10 µM; time after transfection 48 h.
`CCCCN1CCCC1CNC(=O)c1cc(C#N)c2ccccc2c1OC` (stereo not drawn) [Nafadotride]: the log is -0.00108.

As for `NCCNC(=O)c1ccc(Cl)cn1` [Lazabemide hydrochloride], the log is -0.0566.

`COc1ccc(CN2C(=O)C(=O)c3cc(OC(F)(F)F)ccc32)cc1`: the log is 0.026.

Take `COC(=O)c1c(-c2cc(OC)c(OC)c(OC)c2)c2ccnc(OCc3ncccn3)c2c(=O)n1Cc1ccnc(C)c1` [T 0156 hydrochloride]: the log worked out at 0.0768.

On to `Nc1nc2ccc(OC(F)(F)F)cc2s1` [Riluzole hydrochloride], for which the log worked out at 0.00638.

For `CN1CCN(C(=O)c2nc3ccc(Cl)cc3[nH]2)CC1`, the log is -0.012.

Regarding `O=[N+]([O-])c1cccc2cn[nH]c12` [7-Nitroindazole], the log was 0.0438.

`O=C(Nc1ccc(C(F)(F)F)cn1)N1CCN(c2ncccc2C(F)(F)F)CC1`: the log was -0.0637.
